Measurements from “University of Dundee, Small-Polar-MMV Screening Library” (2021), ChEMBL document CHEMBL3988442.

By UniProt entry, the sequences of proteins in these tests, tags left out.
UniProt P9WFT3, whole entry: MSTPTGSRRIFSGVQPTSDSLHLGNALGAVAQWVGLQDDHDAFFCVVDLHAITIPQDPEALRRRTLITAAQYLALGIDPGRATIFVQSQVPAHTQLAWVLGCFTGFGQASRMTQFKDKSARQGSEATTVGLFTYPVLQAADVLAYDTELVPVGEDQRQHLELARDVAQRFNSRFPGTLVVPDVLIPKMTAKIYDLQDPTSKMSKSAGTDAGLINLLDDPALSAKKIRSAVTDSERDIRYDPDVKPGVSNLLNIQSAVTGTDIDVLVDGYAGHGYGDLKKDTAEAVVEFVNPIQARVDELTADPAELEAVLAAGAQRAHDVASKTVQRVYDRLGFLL
UniProt P9WNZ1, whole entry: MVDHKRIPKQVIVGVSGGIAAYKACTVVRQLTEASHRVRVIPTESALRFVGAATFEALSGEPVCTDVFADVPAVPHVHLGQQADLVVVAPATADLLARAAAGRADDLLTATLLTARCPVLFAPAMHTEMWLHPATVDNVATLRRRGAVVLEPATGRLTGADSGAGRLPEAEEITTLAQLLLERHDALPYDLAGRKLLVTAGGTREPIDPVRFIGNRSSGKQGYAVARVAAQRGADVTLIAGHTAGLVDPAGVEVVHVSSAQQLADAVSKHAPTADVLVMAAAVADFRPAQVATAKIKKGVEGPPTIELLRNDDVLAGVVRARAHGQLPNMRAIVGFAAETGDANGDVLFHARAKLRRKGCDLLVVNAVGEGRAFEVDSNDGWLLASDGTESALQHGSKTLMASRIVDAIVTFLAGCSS

A: 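Enzyme assay of tryptophanyl-tRNA synthetase; the read-out is not stated. Target: Tryptophan-tRNA ligase, Mycobacterium tuberculosis (UniProt P9WFT3). Concentration: 10 µM. Higher most likely means stronger inhibition; the record gives no direction and few retests gave an IC50. Size under these conditions: about 65,000 compounds, about 64 of them at 50% or above in at least one test.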
B: 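Enzyme assay of CoaBC with a phosphate dye (Biomol Green) read at 650 nm. Target: Coenzyme A biosynthesis protein CoaBC, Mycobacterium tuberculosis (UniProt P9WNZ1). Tested at 30 µM. Direction is inferred from only a few compounds that gave an IC50; most scored high, so higher reads as stronger inhibition. Most strong results did not repeat in a second test. Size under these conditions: about 67,000 compounds, about 40 of them at 50% or above in at least one test.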

The filed quantity is “Percent Effect” (%).
How 0% and 100% were set is not recorded. Most values in the screen are low, and negative values occur.
Compounds were drawn at random from those tested, without regard to their results.
A dash means the value is not listed here; it may have been measured.

Compound	A	B
CN(Cc1ccco1)C[C@H]1OC[C@@H]2CCN(Cc3cccnc3)C[C@@H]21	5.981%	5.711%
CCn1ncc2c1CN(C(=O)Cc1cccs1)CC2COC (configuration not stated)	5.118%	5.013%
Cc1ccc(C(O)CNC(=O)CCCc2ccccn2)o1 (configuration not stated)	-1.154%	-4.668%
CNc1nc(CNC(=O)Nc2ccccc2-c2noc(C)n2)cs1	-3.774%	-2.926%
CC(C)CN(C)Cc1nc2c(cnn2C)c(=O)[nH]1	8.824%	-1.842%
O=C(c1ccncc1F)N1CC[C@@H]2OC(COCC3CC3)CC[C@@H]21 (some centres not stated)	-1.543%	0.7407%
CC1CCC(NS(=O)(=O)CC(=O)Nc2ccc(N3CCCC3)cn2)CC1 (configuration not stated)	2.948%	-2.288%
O=C(COCC1CC1)N1CCCC(n2ccnc2)C1 (configuration not stated)	4.386%	1.567%
CC(C)[C@H](NC(=O)N1CCC(Cc2ccccc2)CC1)C(=O)O	-1.356%	1.646%
CC(NC(=O)NCCN1CCCC1)c1nncn1C (configuration not stated)	-7.615%	5.867%
COCCCn1ccc(NC(=O)NCCCn2ccnc2)n1	-3.96%	11.65%
Cc1nc(NCC2CC2)nc2c1COCC21CCNC1 (configuration not stated)	1.564%	2.75%
Oc1ccccc1-c1cc(-c2nc(C3CC3)n[nH]2)[nH]n1	-0.7323%	11.45%
Cc1cccc(-n2nc(CC(C)C)nc2[C@H](C)O)c1	-0.641%	-0.4914%
O=C(c1ccc(=O)[nH]n1)N1CCCC1C1CCCC1 (configuration not stated)	-6.859%	4.713%
CC(NC(=O)c1cccc(CCC(C)(C)O)c1)c1nnc(N)s1 (configuration not stated)	-2.026%	3.851%
C[C@@H]1CN(Cc2ccccn2)C[C@]12CCN(Cc1cccnc1)C2=O	-1.658%	3.294%
O=C(C[C@@H]1COC[C@H]2CN(C3CCC3)C[C@@H]12)NCc1cccnc1	-	5.939%
COc1cccc2c1CCC2NC(=O)NCc1csc(N(C)C)n1 (configuration not stated)	12.83%	9.639%
O=S(=O)(N1CCC(n2cccc2)CC1)N1CCCC1c1ccco1 (configuration not stated)	0.5228%	-0.4914%
CS(=O)(=O)N1C[C@H]2CN(CC3CC3)C(=O)[C@H]2C1	-	0.7317%
Cc1cc(C2CCCN2Cc2ccc(S(=O)(=O)N(C)C)o2)on1 (configuration not stated)	-5.062%	2.682%
Cn1cc(CC(=O)N2CCC(Nc3cccnn3)CC2)c2ccccc21	2.861%	3.426%
CC(C)c1nnc(NC(=O)CN2C(=O)c3ccccc3NC2C(C)C)s1 (configuration not stated)	2.412%	1.58%
COCc1cncc2c1CCN(C(=O)c1cscn1)C2	-	-1.856%
CN(C)S(=O)(=O)N1CCC(C(O)c2ccc(Cl)cc2)CC1 (configuration not stated)	9.77%	1.106%
Cc1noc(C)c1CN(C)C(=O)C1CCCCN1CC(C)C (configuration not stated)	17.38%	3.509%
CN1CCCC1CNC(=O)c1nnn(-c2ccc(F)cc2)c1C1CC1 (configuration not stated)	9.944%	-23.81%
CCc1[nH]c2c(CNc3cncc(C(=O)OC)n3)cc(C)cc2c1C	3.864%	-2.133%
CCOCC1c2c(cnn2C)CCN1C(=O)c1ccncn1 (configuration not stated)	-1.066%	-
Cc1ccc(CC2COCCN(Cc3ccccc3)C2)nc1 (configuration not stated)	-6.272%	-23.06%
CCCc1cnc(C)nc1N1CCC(Cc2ccc(CO)cc2)C1 (configuration not stated)	-4.271%	2.033%
Cc1ccc(C(=O)NS(=O)(=O)c2cccc3cnccc23)c(=O)[nH]1	-0.09719%	4.722%
CN1CCN(C(=O)c2n[nH]c3c2CN(C2CCOC2)CC3)CC1 (configuration not stated)	-9.302%	1.416%
O=C1COC2(CCN(Cc3cccs3)CC2)CN1c1ccsc1	4.181%	15.02%
NC(CC1CCCC1)c1ccc(Oc2ccccc2)cc1 (configuration not stated)	-3.617%	9.926%
NC(=O)c1ccccc1Oc1cnc(C2CCCN2)cn1 (configuration not stated)	-0.3903%	3.73%
Cn1ccc(CN2CCCC2c2ccc3c(c2)OCCCO3)cc1=O (configuration not stated)	1.262%	2.85%
O=C1N(c2ccsc2)CCC12CCCN(c1ccccn1)C2 (configuration not stated)	-	-2.104%
CSc1ccc(CN(CCO)C(=O)CCOc2ccccc2)cc1	-0.2719%	3.165%
CCC(CNC(=O)C1CCC1)(OC)c1ccccc1 (configuration not stated)	2.052%	-0.2114%
COc1c(CNCC(O)c2ccc(C)cc2)c(C(C)C)nn1C (configuration not stated)	-5.517%	4.961%
CCN1C(=O)COC[C@@H]1[C@H](O)c1ccc(NC(=O)COC)cc1	1.297%	-1.375%
CCc1nc(CN2CCCN(C(=O)COC)CC2)cs1	0.3298%	11.58%
CCCSc1ncc(C2CC(=O)NCc3nc4ccccn4c32)cn1 (configuration not stated)	-1.458%	-1.587%
CC(C)N1CCC2(CC1)CC(c1cccnc1)C(=O)N2 (configuration not stated)	0.6823%	3.585%
CCn1cc(CN2CC3CCCN3C[C@H]2C)c(C)n1 (some centres not stated)	6.94%	0.5556%
CN1CCC2(CC1)CN(C(=O)c1cccnc1)c1ccc(Cl)cc12	-	0.3713%
CN(C)C(=O)CN1CC[C@]2(CN(CC3CC3)C[C@H]2c2ccccc2)C1=O	-	4.485%
Cc1cc(C)n(CC2CCCCN2CCCS(=O)(=O)N(C)C)n1 (configuration not stated)	-1.644%	0.978%
CCS(=O)(=O)N1CCC(c2nnc(CN3CCCC3)n2C2CC2)CC1	3.552%	10.27%
Cc1noc(C)c1CN1CC[C@@H]2O[C@@H](COCC3CC3)CC[C@@H]21	-1.394%	-1.29%
CCOc1ncccc1NC(=O)N1CCN(c2cccc(C)c2C)CC1	-5.345%	4.384%
Cc1nc(O)cc(C2CCCN(C(=O)c3cccc(N(C)C)c3)C2)n1 (configuration not stated)	-1.644%	-19.42%
CC(C)N(C)C(=O)c1ccc(Cl)c(NC(=O)CCN2C(=O)CCC2=O)c1	0.3303%	-6.211%
Cc1ncnc2c1CCN(C(=O)CN(C)C)CC2	5.99%	-0.6342%
CCCS(=O)(=O)CC(=O)Nc1cc(CC(C)(C)C)n[nH]1	-1.14%	3.891%
CN(C)CC1CN(Cc2nnc(-c3ccccc3Cl)o2)CCO1 (configuration not stated)	-0.7601%	2.738%
CN1C[C@H]2C[C@H](C(=O)Nc3cccnc3)[C@@H](C1)O2	-6.099%	2.5%
CC(=O)Nc1cccc(Cn2nc(C)nc2C)c1	-2.3%	9.677%
CCOc1cccc(CNC(=O)NCC(O)c2cccc(F)c2)c1 (configuration not stated)	0.8607%	3.203%
CNS(=O)(=O)c1ccccc1N1CCN(C(=O)C(C)C)CC1	0.5623%	-0.9724%
O=C(O)c1cc(-c2ccoc2)cc(S(=O)(=O)NC2CC2)c1	-4.446%	10.03%
Cc1cn2c(n1)CCC(NC(=O)c1[nH]ncc1Br)C2 (configuration not stated)	-9.833%	0.5222%
CCC[C@H]1CN(CCS(C)(=O)=O)C[C@@H]1NC(=O)c1cccnn1	3.494%	-4.176%
O=C1CCCCN1CC(=O)N1CCCC(c2ccccc2)C1 (configuration not stated)	4.584%	0.2439%
Cn1cc(CN2CC[C@@H](NS(C)(=O)=O)[C@@H]2Cc2cccnc2)cn1	-6.337%	4.061%
Cc1oc(-c2ccco2)nc1CN1CCCC(Cn2cncn2)C1 (configuration not stated)	8.596%	0.5249%
CC(=O)N1N=C(c2ccccc2)OC1C(=O)N(C)Cc1ccccc1 (configuration not stated)	-	3.155%

Some entries from above, unchanged:

| Compound | A | B |
|---|---|---|
| `CCCSc1ncc(C2CC(=O)NCc3nc4ccccn4c32)cn1` (configuration not stated) | -1.458% | -1.587% |
| `O=C(C[C@@H]1COC[C@H]2CN(C3CCC3)C[C@@H]12)NCc1cccnc1` | - | 5.939% |
| `O=C(c1ccc(=O)[nH]n1)N1CCCC1C1CCCC1` (configuration not stated) | -6.859% | 4.713% |
| `COCCCn1ccc(NC(=O)NCCCn2ccnc2)n1` | -3.96% | 11.65% |
| `CN(C)S(=O)(=O)N1CCC(C(O)c2ccc(Cl)cc2)CC1` (configuration not stated) | 9.77% | 1.106% |
| `C[C@@H]1CN(Cc2ccccn2)C[C@]12CCN(Cc1cccnc1)C2=O` | -1.658% | 3.294% |
| `Cc1ncnc2c1CCN(C(=O)CN(C)C)CC2` | 5.99% | -0.6342% |
| `CCn1ncc2c1CN(C(=O)Cc1cccs1)CC2COC` (configuration not stated) | 5.118% | 5.013% |
| `Cc1nc(O)cc(C2CCCN(C(=O)c3cccc(N(C)C)c3)C2)n1` (configuration not stated) | -1.644% | -19.42% |